Assay results: paper PMC12504691
Results are given in words; binding and its absence hold for the method and conditions named. Binding seen in cells or lysates may run through a third protein. Some binding calls cover weakened binding; strength is not graded here.

Molecular target: Estrogen receptor alpha (ESR1) (UniProt P03372)
Assay: pull-down; called 'pull-down assay' in the legend; ESR1 overexpression model (MCF7), detected by blot; also after E2 treatment (Fig. 6G); bait not stated

- binding: binds
Substance: SQSTM1 (p62) (from UniProt Q13501 1-440)
